Results: paper PMC12065298
Results are given in words; binding and its absence hold for the method and conditions named. Binding seen in cells or lysates may run through a third protein. Some binding calls cover weakened binding; strength is not graded here. Tags and fused reporters may be left off the sequences shown.

By UniProt entry, the sequences of proteins in these tests, tags left out.
UniProt P23458: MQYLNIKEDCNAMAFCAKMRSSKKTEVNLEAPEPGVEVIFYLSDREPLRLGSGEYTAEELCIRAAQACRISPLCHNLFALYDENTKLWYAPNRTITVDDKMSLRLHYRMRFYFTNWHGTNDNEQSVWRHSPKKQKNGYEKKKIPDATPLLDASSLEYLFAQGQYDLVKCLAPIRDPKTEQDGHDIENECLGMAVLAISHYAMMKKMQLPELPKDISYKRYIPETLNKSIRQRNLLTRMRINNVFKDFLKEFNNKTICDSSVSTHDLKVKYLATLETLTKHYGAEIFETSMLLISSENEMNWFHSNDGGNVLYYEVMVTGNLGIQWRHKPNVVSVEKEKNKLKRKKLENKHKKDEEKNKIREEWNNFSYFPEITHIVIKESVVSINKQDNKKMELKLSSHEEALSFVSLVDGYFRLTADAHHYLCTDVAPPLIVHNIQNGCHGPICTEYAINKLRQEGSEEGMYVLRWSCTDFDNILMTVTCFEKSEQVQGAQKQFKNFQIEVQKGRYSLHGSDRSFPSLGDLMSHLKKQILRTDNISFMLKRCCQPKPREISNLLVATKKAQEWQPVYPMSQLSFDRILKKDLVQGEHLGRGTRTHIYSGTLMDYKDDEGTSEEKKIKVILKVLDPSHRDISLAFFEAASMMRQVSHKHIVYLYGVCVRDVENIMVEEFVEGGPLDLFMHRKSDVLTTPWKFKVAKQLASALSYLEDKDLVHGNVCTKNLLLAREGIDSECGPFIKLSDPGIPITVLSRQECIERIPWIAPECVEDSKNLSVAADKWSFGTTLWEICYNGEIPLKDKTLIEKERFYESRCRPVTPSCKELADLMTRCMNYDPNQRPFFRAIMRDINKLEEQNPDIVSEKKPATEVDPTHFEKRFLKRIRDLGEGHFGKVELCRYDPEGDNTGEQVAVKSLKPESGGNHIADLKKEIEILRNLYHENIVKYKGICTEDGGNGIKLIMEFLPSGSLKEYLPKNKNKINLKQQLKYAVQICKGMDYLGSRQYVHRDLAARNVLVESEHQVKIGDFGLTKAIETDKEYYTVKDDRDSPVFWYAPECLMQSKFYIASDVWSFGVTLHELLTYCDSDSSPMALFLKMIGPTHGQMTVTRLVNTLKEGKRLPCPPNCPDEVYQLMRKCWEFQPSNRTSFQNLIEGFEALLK
UniProt P02538: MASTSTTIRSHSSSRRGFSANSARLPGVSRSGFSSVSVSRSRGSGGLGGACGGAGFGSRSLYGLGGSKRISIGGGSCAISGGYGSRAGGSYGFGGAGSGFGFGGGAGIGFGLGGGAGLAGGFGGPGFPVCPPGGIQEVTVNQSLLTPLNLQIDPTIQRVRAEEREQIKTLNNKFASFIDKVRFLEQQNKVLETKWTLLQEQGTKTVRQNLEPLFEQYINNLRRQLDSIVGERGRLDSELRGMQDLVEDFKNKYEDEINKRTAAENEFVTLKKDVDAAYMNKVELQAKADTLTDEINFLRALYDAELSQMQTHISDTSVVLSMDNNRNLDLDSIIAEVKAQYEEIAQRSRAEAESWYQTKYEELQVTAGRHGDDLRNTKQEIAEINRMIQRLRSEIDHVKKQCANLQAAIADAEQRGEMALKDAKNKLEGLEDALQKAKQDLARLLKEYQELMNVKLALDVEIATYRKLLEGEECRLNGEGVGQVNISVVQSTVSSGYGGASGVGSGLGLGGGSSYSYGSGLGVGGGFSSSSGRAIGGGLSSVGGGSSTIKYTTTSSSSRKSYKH

B1: HA-RNF41 (ring finger protein 41), full length (enzyme, UniProt Q9H4P4 1-317)
chain: MGYDVTRFQGDVDEDLICPICSGVLEEPVQAPHCEHAFCNACITQWFSQQQTCPVDRSVVTVAHLRPVPRIMRNMLSKLQIACDNAVFGCSAVVRLDNLMSHLSDCEHNPKRPVTCEQGCGLEMPKDELPNHNCIKHLRSVVQQQQTRIAELEKTSAEHKHQLAEQKRDIQLLKAYMRAIRSVNPNLQNLEETIEYNEILEWVNSLQPARVTRWGGMISTPDAVLQAVIKRSLVESGCPASIVNELIENAHERSWPQGLATLETRQMNRRYYENYVAKRIPGKQAVVVMACENQHMGDDMVQEPGLVMIFAHGVEEI
B2: HA-RNF41-NT (RNF41 N-terminal domain, residues 1-133) (domain or fragment, UniProt Q9H4P4 1-133)
chain: MGYDVTRFQGDVDEDLICPICSGVLEEPVQAPHCEHAFCNACITQWFSQQQTCPVDRSVVTVAHLRPVPRIMRNMLSKLQIACDNAVFGCSAVVRLDNLMSHLSDCEHNPKRPVTCEQGCGLEMPKDELPNHN

Each molecule was assayed against Flag-JAK1 (Janus kinase 1) (human) (UniProt P23458) (assay: co-IP; plasmids co-transfected into HEK293T cells for 48 h; MG132 (50 uM) 4 h; NP-40 lysis buffer; anti-Flag magnetic beads 2 h; washes in 25 mM Tris pH 8.0, 150 mM NaCl, 0.2% NP40; Western blotting; with or without a third plasmid (KRT6A or RNF41)).
“KRT6A (keratin 6A), expressed from the 'KRT6A plasmid' (from UniProt P02538 1-564)” was tested, and the binding was “binds”.
With B1 the binding was “binds”.
With B2 the binding was “binds”.
